# PubChem BioAssay AID463116 (University of Pittsburgh Molecular Library Screening Center, 2010)
# Some of the results follow. These are further read-outs of the screen, such as a control signal, another cell line or another target. No call is given for them. Most of these compounds were active or inconclusive in the main read-out, so they are no random draw.
# Experiment: dynein cargo transport inhibitors, GR-EGFP translocation, confirmation, imaging, high-content imaging, GR-EGFP cells (AID 463116)
# Settings: 3617.4 GR-EGFP nuclear translocation imaging, dexamethasone-induced; measured here: cell count per field; at 20 µM
row,SMILES,z-score
1,O=C(NCCC1=CCCCC1)c1coc(=O)c(Br)c1,0.552
2,Cc1cc(C)n(C(C[N+](=O)[O-])c2ccc(Cl)cc2)n1 (centres undefined),0.342
3,CC1=NN(c2cccc(C(=O)O)c2)C(=O)/C1=C\C=C/c1ccccc1,0.584
4,O=S1(=O)CCC(NC(=S)SCCOc2ccccc2)C1 (centres undefined),-0.216
5,Cc1ccc(O)c(NC(=O)c2cc([N+](=O)[O-])ccc2Cl)c1,0.644
6,Cn1c(=O)c(Nc2ccc(Cl)cc2)c2c3c(cccc31)C(=O)c1ccccc1-2,0.793
7,O=C(Cc1ccccc1)Nc1cccc(N2C(=O)C=CC2=O)c1,-1.81
8,COC(=O)c1cc(=O)n(CCc2ccccc2F)c(=Nc2ccc(F)c(Cl)c2)s1,-0.281
9,O=c1oc2c3c4c(cc2c(C(F)(F)F)c1CCN1CCOCC1)CCCN4CCC3,0.0811
10,CCN1/C(=C/C=C/c2oc3ccc4ccccc4c3[n+]2CC)Oc2ccc3ccccc3c21,0.393
11,Cc1ccc(NC(=O)CN(C)C(=O)Cn2ncc(Cl)c(Cl)c2=O)cc1,0.281
12,Cc1ccc(C2C3CSCC=C3C(C#N)=C(N)C2(C#N)C#N)cc1 (centres undefined),-0.64
13,O=C(NC(=S)Nc1nc2c(s1)CSc1ccccc1-2)c1ccccc1,0.35
14,C=C(CC)C(=O)c1ccc(OCC(=O)O)c(Cl)c1Cl,0.838
15,CS(=O)(=O)N1N=C(c2ccccc2)CC1c1ccc2c(c1)OCO2 (centres undefined),0.758
16,CCOC(=O)C1(CCCc2ccccc2)CCN(C(=O)C2=C(C)OCCO2)CC1,-0.0873
17,COc1cc(C(=O)Sc2ccc(C)cc2)cc(OC)c1OC,0.0657
18,Cc1ccnc(SCc2cc(=O)c(OC(=O)c3cc([N+](=O)[O-])ccc3Cl)co2)n1,0.238
19,CCn1c(Cl)c(C=O)s/c1=N\S(=O)(=O)c1ccccc1,0.122
20,CCCCN1C(=O)/C(=C/C=C2\Oc3ccccc3N2CC)SC1=S,0.53
21,CC(C)(C)NC(=S)N/N=C\c1ccc(-c2ccc([N+](=O)[O-])cc2)o1,0.227
22,CC1(C)CC(=O)/C(=C\c2cccc([N+](=O)[O-])c2)C(C)(C)N1,0.583
23,Cc1cccc(Cn2ncc(Cl)c(Cl)c2=O)c1,-0.117
24,COc1cccc(-n2nc(C#N)c(Cl)cc2=O)c1,0.911
25,COc1cc(/C=C(/C(=O)c2cccs2)c2nc3ccccc3[nH]2)cc(OC)c1O,0.676
26,CCOC(=O)C1=C(C)OC(N)=C(C#N)C1c1cncc(-c2ccc(F)cc2)c1 (centres undefined),0.144
27,O=C(/C=C/c1cccc([N+](=O)[O-])c1)NC(=S)Nc1ccccc1C(=O)O,0.0618

# Looked up by structure from above:
row,SMILES,z-score
3,CC1=NN(c2cccc(C(=O)O)c2)C(=O)/C1=C\C=C/c1ccccc1,0.584
15,CS(=O)(=O)N1N=C(c2ccccc2)CC1c1ccc2c(c1)OCO2 (centres undefined),0.758
22,CC1(C)CC(=O)/C(=C\c2cccc([N+](=O)[O-])c2)C(C)(C)N1,0.583
8,COC(=O)c1cc(=O)n(CCc2ccccc2F)c(=Nc2ccc(F)c(Cl)c2)s1,-0.281
14,C=C(CC)C(=O)c1ccc(OCC(=O)O)c(Cl)c1Cl,0.838

# Later entries:

row,SMILES,z-score
1,CCOC(=O)C1C(=O)C=C(/C=C/c2ccc(N(C)C)cc2)CC1c1ccccc1 (centres undefined),-0.158
2,CC(=O)n1cc(N(C(=O)CCl)c2ccc(C)cc2)c2ccccc21,-0.712
3,O=C(/C=C/c1ccc(Cl)cc1)c1cccnc1,0.28
4,CCCc1cc(-n2ccnc2)n2c(nc3ccccc32)c1C#N,0.129
5,O=C(/C=C/C=C/c1ccccc1)c1ccco1,-0.146
6,CCOC(=O)/C(=C\c1cccc(O)c1)c1nc2sc(C)c(C)c2c(=O)[nH]1,0.879
7,COC(CN(C(=O)CCl)C(C(=O)NC1CCCCC1)c1ccc(Cl)cc1)OC (centres undefined),0.272
8,COc1ccccc1N1C(=O)CC(Sc2n[nH]c(-c3cccc(C)c3)n2)C1=O (centres undefined),0.538
9,C=CCSC(=C(C#N)C#N)c1cc2c([nH]1)CCCC2,-0.089
10,Nc1cccc2c1C(=O)N(C(=O)/C=C/c1ccc(F)cc1)C2=O,0.336
11,CC(=O)OCCNc1cc(SCc2ccco2)c2nonc2c1[N+](=O)[O-],0.0784
12,CCCn1nc([N+](=O)[O-])c(C(C#N)c2nc3ccccc3s2)c(Cl)c1=O (centres undefined),0.912
13,O=C(NCc1cccnc1)/C(=C\c1ccc(-c2ccc(Br)cc2)o1)S(=O)(=O)c1ccccc1,0.0511
14,N#Cc1nccnc1S(=O)(=O)c1cccs1,-1.13
15,O=C1c2ccccc2-c2onc3ccc(NCc4ccco4)c1c23,-0.405
16,ClCc1nnc(-c2cc3c(s2)CCCC3)o1,0.0278
17,Cn1ncc(S(=O)(=O)Cc2ccccc2)c(Cl)c1=O,-0.0555
18,COc1cccc(-n2nnnc2S(C)(=O)=O)c1,-0.107
19,O=[N+]([O-])c1ccc(-n2nnnc2-c2ccccc2)c([N+](=O)[O-])c1,0.264
20,CCn1c(=O)cc(C(=O)OC)sc1=Nc1ccc(F)c(F)c1,-0.181
21,Cc1[nH]c2ccccc2c1CN1CCc2ccccc2C1,0.335
22,COC(=O)C1=C(C)N(CCC2=CCCCC2)C(=O)C1,-0.202
23,CCOc1cc(/C=C2/COc3ccccc3C2=O)ccc1OCC(=O)N(C)C,0.201
24,N#CC(C#N)=C1C=C2C=C(N3CCCCC3)CCC2CC1 (centres undefined),0.505
25,O=C(CCl)Nc1ccc(N2CCCCCC2)cc1,-0.177
26,CC(C)N=c1scc(-c2cccs2)n1/N=C/c1ccc(O)c(O)c1O,0.315
27,C=CCNCCCOc1ccc(Cl)cc1C(C)(C)C,-0.773
